Values of other authors, collected in patent US20090075313A1, “Split protein fragments, split protein systems, methods of making split protein systems, and methods of using split protein systems” (Stanford University, priority 2007, published 2009).
For at least one compound, name, drawing or mass did not settle the structure.

System: cells
Settings: cited from earlier work

## CO[C@H]1C[C@@H]2CC[C@@H](C)[C@@](O)(O2)C(=O)C(=O)N2CCCC[C@H]2C(=O)O[C@H]([C@H](C)C[C@@H]2CC[C@@H](O)[C@H](OC)C2)CC(=O)[C@H](C)/C=C(\C)[C@@H](O)[C@@H](OC)C(=O)[C@H](C)C[C@H](C)/C=C/C=C/C=C/1C [rapamycin]
  typical EC50 necessary to arrest cell division, relative to the concentration range used here: about 50 times
